Values joined by “and” are separate entries in the source; they are usually repeats but may differ in a detail not shown here. Equal values may be shown once. At least one read-out could not be matched to a standard name with certainty.
System: C57BL/6 Diet Induced Obese (DIO) mice
Assay: Oral (P.O.) administration study in DIO mice: in vivo activity, body weights
Parameters: species or system mouse
Details: 2 mg/kg; for Individual Body Weight, DSNG 3 / Individual Body Weight, DSNG 4 / Individual Body Weight, DSNG 5 / Individual Body Weight, DSNG 6 / Individual Body Weight, DSNG 7 / Individual Body Weight, DSNG 8: male DIO mice; for Individual Body Weight, DSNG 3: dosing phase day 3, one line per animal; for Individual Body Weight, DSNG 4: dosing phase day 4, one line per animal; for Individual Body Weight, DSNG 5: dosing phase day 5, one line per animal; for Individual Body Weight, DSNG 6: dosing phase day 6, one line per animal; for Individual Body Weight, DSNG 7: dosing phase day 7, one line per animal; for Individual Body Weight, DSNG 8: dosing phase day 8, one line per animal; for Individual Body Weight, DSNG 9 / Individual Body Weight, DSNG 10 / Individual Body Weight, DSNG 11: individual male DIO mice
Excerpt: The purpose of this study was to assess test articles in the Diet Induced Obese (DIO) mouse.
Male C57BL/6 Diet Induced Obese (DIO) mice were received from Taconic. Animals were acclimated to housing conditions for at least 1 week prior to vehicle acclimation dosing. Animals were acclimated to oral gavage dosing with vehicle once daily for Days 11 through 14 of the predose phase.
At initiation of dosing, animals were 21 to 22 weeks old, and their body weights ranged from 29.8 to 40.1 g.
Dose formulations were administered by oral gavage once daily for 10 days at a dose volume of 2 mL/kg. Doses were based on the most recently recorded scheduled body weight.
Body weights were recorded daily on Days 11 through 14 of the predose phase. Body weights were collected for all animals daily during the dosing phase prior to dosing.
Descriptive statistics (n, mean, standard error of the mean, standard deviation) were completed. Additionally, one-way analysis of variance followed by Dunnett's post-hoc test were performed on body weight (cumulative body weight change), glucose (glucose percent change), and food consumption (cumulative food consumption). Area under the curve (for body weight, cumulative body weight change, daily body weight change, and food consumption) was computed for treatment groups. An appropriate comparison test, such as one-way analysis of variance and Dunnett's, was performed on the group means for the area under the curve computations. Any additional statistical analysis and interpretation of the results were the responsibility of the sponsor.

[1] = dosing day 9 (DSNG 9), one line per animal
[2] = dosing day 10 (DSNG 10), one line per animal
[3] = dosing day 11 (DSNG 11), one line per animal

SMILES | Individual Body Weight, DSNG 3 | Individual Body Weight, DSNG 4 | Individual Body Weight, DSNG 5 | Individual Body Weight, DSNG 6 | Individual Body Weight, DSNG 7 | Individual Body Weight, DSNG 8 | Individual Body Weight, DSNG 9 [1] | Individual Body Weight, DSNG 10 [2] | Individual Body Weight, DSNG 11 [3] | Individual Body Weight, DSNG 9 (dosing phase day 9) | Individual Body Weight, DSNG 10 (dosing phase day 10) | Individual Body Weight, DSNG 11 (dosing phase day 11)
CC1=C(O)C(=O)C=C2C1=CC=C1[C@@]2(C)CC[C@@]2(C)[C@@H]3C[C@](C)(C(N)=O)CC[C@]3(C)CC[C@]12C [ERX1006] | 33.4 g and 35.1 g and 32.1 g and 31.2 g and 35.4 g | 31.9 g and 35.7 g and 32.0 g and 30.0 g and 34.4 g | 32.1 g and 35.6 g and 31.7 g and 30.0 g and 33.6 g | 31.5 g and 34.8 g and 31.8 g and 30.3 g and 34.2 g | 30.4 g and 34.3 g and 31.1 g and 30.0 g and 34.0 g | 29.2 g and 34.2 g and 31.5 g and 30.1 g and 33.7 g | 28.9 g and 33.7 g and 31.2 g and 30.1 g and 33.3 g | 28.2 g and 34.4 g and 31.9 g (2×) and 29.6 g | 27.6 g and 33.9 g and 31.4 g and 29.8 g and 31.6 g |  |  | 
CC(=O)OC1=C(C)C2=CC=C3[C@@](C)(CC[C@@]4(C)[C@@H]5C[C@](C)(C(=O)O)CC[C@]5(C)CC[C@]34C)C2=CC1=O [ERX1007] | 32.4 g and 35.7 g and 33.1 g and 30.2 g and 35.3 g | 32.9 g and 35.1 g and 32.8 g and 30.4 g and 35.4 g | 32.1 g and 35.4 g and 32.4 g and 30.4 g and 35.1 g | 31.9 g and 34.8 g and 31.7 g and 29.0 g and 34.6 g | 32.0 g and 34.7 g and 31.6 g and 29.4 g and 34.5 g | 31.8 g and 34.8 g and 32.0 g and 29.6 g and 35.3 g | 31.2 g and 34.6 g and 31.3 g and 29.1 g and 35.2 g | 30.9 g and 34.7 g and 30.7 g and 28.9 g and 35.5 g | 30.8 g and 35.3 g and 31.3 g and 28.7 g and 35.5 g |  |  | 
CC1=C(O)C(=O)C=C2C1=CC=C1[C@@]2(C)CC[C@@]2(C)[C@@H]3C[C@](C)(C(=O)O)CC[C@]3(C)CC[C@]12C [ERX1000-4, Celastrol] | 33.3 g and 30.3 g and 36.0 g and 32.2 g | 32.7 g and 29.2 g and 36.3 g and 31.4 g and 33.1 g | 31.1 g and 30.1 g and 37.0 g and 30.7 g and 31.7 g | 30.6 g and 29.6 g and 35.4 g and 29.5 g and 31.8 g | 28.4 g and 28.9 g and 31.4 g | 30.2 g and 27.8 g and 34.2 g and 29.4 g and 30.3 g | 30.8 g and 33.9 g and 29.0 g and 30.4 g | 30.1 g and 27.5 g and 33.7 g and 27.7 g and 31.1 g | 28.7 g and 26.9 g and 32.9 g and 27.3 g |  |  | 
COC(=O)[C@]1(C)CC[C@]2(C)CC[C@]3(C)C4=CC=C5C(=CC(=O)C(O)=C5C)[C@]4(C)CC[C@@]3(C)[C@@H]2C1 [Pristimerin, reference compound] | 40.1 g and 32.6 g and 29.2 g and 35.3 g and 31.2 g | 40.3 g and 32.4 g and 29.0 g and 34.7 g and 30.3 g | 40.3 g and 32.3 g and 28.6 g and 35.1 g and 30.1 g | 40.9 g and 32.2 g and 28.7 g and 35.1 g and 29.9 g | 40.7 g and 31.6 g and 29.1 g and 35.8 g and 30.2 g | 40.3 g and 31.2 g and 28.2 g and 35.8 g and 30.0 g |  |  |  | 40.6 g and 31.4 g and 28.2 g and 35.2 g and 29.3 g | 40.2 g and 31.3 g and 28.6 g and 35.9 g and 29.8 g | 41.4 g and 32.3 g and 29.6 g and 36.4 g and 29.8 g
